These are yes or no findings as the source states them, for the method shown. Binding seen in cells or lysates may run through a third protein. Some entries that bind do so weakly or less than the wild type. For some assays here: Tags and fused reporters may be left off the sequences shown. Each block holds one molecule with its values, some of them ahead of it.
Assays:
[1] = biological target: T1, MAX-binding protein MNT, endogenous in myeloid cells (human (endogenous in HL60 and U937)) (UniProt Q99583); assay: co-IP; endogenous proteins in HL60 cells during differentiation induced with 1 uM ATRA; which protein was precipitated is not told
T1 sequence: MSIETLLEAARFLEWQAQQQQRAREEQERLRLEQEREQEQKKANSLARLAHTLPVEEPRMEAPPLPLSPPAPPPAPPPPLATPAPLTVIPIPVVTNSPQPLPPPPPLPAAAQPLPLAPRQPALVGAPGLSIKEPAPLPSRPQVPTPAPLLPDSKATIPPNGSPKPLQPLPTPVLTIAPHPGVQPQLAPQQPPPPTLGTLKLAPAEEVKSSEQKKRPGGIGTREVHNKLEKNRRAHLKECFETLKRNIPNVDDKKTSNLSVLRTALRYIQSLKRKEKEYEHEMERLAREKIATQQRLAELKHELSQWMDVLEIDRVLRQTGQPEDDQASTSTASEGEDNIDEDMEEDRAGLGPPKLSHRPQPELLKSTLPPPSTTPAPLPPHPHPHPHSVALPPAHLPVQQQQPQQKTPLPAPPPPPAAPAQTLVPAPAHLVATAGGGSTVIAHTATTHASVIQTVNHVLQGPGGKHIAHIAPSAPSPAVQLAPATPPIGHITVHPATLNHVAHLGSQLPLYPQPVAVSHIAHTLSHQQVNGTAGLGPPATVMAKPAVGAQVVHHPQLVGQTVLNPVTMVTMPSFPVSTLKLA

Amino acid sequences for entries named in this document (tags omitted).
UniProt Q05086: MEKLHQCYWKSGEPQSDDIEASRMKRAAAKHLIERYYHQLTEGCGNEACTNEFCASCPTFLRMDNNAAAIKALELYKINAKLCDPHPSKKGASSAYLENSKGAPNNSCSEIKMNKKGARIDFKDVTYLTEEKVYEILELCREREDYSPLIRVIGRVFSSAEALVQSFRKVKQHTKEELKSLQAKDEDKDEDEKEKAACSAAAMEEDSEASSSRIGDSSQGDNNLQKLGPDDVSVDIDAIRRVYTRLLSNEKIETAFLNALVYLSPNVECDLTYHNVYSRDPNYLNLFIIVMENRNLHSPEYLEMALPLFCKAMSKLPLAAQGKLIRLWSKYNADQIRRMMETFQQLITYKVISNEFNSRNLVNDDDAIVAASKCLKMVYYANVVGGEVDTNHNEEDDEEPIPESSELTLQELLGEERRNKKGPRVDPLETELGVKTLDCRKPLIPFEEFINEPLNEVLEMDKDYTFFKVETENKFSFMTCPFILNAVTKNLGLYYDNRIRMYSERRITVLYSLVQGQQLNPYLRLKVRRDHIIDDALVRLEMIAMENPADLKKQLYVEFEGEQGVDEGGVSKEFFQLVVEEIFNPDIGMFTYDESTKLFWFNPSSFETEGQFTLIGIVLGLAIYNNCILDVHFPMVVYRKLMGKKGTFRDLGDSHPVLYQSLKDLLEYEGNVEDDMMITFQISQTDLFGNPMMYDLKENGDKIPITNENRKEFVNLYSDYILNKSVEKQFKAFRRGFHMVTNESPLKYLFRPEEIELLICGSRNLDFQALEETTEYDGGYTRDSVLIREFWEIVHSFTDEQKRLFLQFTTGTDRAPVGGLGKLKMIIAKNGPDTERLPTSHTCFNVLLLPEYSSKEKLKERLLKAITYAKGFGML
UniProt P61244: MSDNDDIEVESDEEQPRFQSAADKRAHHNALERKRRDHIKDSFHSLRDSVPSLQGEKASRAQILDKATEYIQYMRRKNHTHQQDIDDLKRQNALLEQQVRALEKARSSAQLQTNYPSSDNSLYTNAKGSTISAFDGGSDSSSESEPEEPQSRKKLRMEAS

[2] = biological target: T1, MAX-binding protein MNT, endogenous in myeloid cells (human (endogenous in HL60 and U937)); assay: co-IP; MNT antibody; endogenous proteins in HL60 whole cell extracts; cells treated with 1 uM ATRA for 24 h, with or without 10 uM MG132 6 h before harvest; blot with anti-MNT then anti-E6AP
[3] = biological target: E6AP expressed from pcDNA3.1-E6AP (UniProt Q05086); assay: co-IP; E6AP antibody; lysates of HEK293T co-transfected with 1.0 ug HA-MNT and 0.5 ug E6AP; blot with anti-E6AP and anti-HA; with or without 10 uM MG132 or 10 uM Lactacystin 6 h before harvest
[4] = biological target: GST-tagged E6AP (ubiquitin-protein ligase E6-associated protein) (UniProt Q05086); assay: pull-down; GST and GST-E6AP with lysates of 293T cells transfected with 0.5 ug HA-MNT; immunoblot; only the target purified
[5] = biological target: E6AP, endogenous in myeloid cells (human (endogenous in HL60 and U937)) (UniProt Q05086); assay: co-IP; E6AP antibody; endogenous proteins in U937 whole cell extracts; cells treated with 5 nM PMA for 24 h, with or without 10 uM MG132 6 h before harvest; blot with E6AP then MNT antibody

- binding [1]: binds
Molecule: Protein max, endogenous in HL60 cells (from UniProt P61244 1-160)

- binding [2]: binds
Molecule: E6AP, endogenous in myeloid cells (from UniProt Q05086 1-875) (enzyme)

- binding [3]: binds
- binding [4]: binds
B1: HA-MNT (protein, UniProt Q99583 1-582)
chain: MSIETLLEAARFLEWQAQQQQRAREEQERLRLEQEREQEQKKANSLARLAHTLPVEEPRMEAPPLPLSPPAPPPAPPPPLATPAPLTVIPIPVVTNSPQPLPPPPPLPAAAQPLPLAPRQPALVGAPGLSIKEPAPLPSRPQVPTPAPLLPDSKATIPPNGSPKPLQPLPTPVLTIAPHPGVQPQLAPQQPPPPTLGTLKLAPAEEVKSSEQKKRPGGIGTREVHNKLEKNRRAHLKECFETLKRNIPNVDDKKTSNLSVLRTALRYIQSLKRKEKEYEHEMERLAREKIATQQRLAELKHELSQWMDVLEIDRVLRQTGQPEDDQASTSTASEGEDNIDEDMEEDRAGLGPPKLSHRPQPELLKSTLPPPSTTPAPLPPHPHPHPHSVALPPAHLPVQQQQPQQKTPLPAPPPPPAAPAQTLVPAPAHLVATAGGGSTVIAHTATTHASVIQTVNHVLQGPGGKHIAHIAPSAPSPAVQLAPATPPIGHITVHPATLNHVAHLGSQLPLYPQPVAVSHIAHTLSHQQVNGTAGLGPPATVMAKPAVGAQVVHHPQLVGQTVLNPVTMVTMPSFPVSTLKLA

- binding [5]: binds
B2: MAX-binding protein MNT, endogenous in myeloid cells (protein, UniProt Q99583 1-582)
chain: MSIETLLEAARFLEWQAQQQQRAREEQERLRLEQEREQEQKKANSLARLAHTLPVEEPRMEAPPLPLSPPAPPPAPPPPLATPAPLTVIPIPVVTNSPQPLPPPPPLPAAAQPLPLAPRQPALVGAPGLSIKEPAPLPSRPQVPTPAPLLPDSKATIPPNGSPKPLQPLPTPVLTIAPHPGVQPQLAPQQPPPPTLGTLKLAPAEEVKSSEQKKRPGGIGTREVHNKLEKNRRAHLKECFETLKRNIPNVDDKKTSNLSVLRTALRYIQSLKRKEKEYEHEMERLAREKIATQQRLAELKHELSQWMDVLEIDRVLRQTGQPEDDQASTSTASEGEDNIDEDMEEDRAGLGPPKLSHRPQPELLKSTLPPPSTTPAPLPPHPHPHPHSVALPPAHLPVQQQQPQQKTPLPAPPPPPAAPAQTLVPAPAHLVATAGGGSTVIAHTATTHASVIQTVNHVLQGPGGKHIAHIAPSAPSPAVQLAPATPPIGHITVHPATLNHVAHLGSQLPLYPQPVAVSHIAHTLSHQQVNGTAGLGPPATVMAKPAVGAQVVHHPQLVGQTVLNPVTMVTMPSFPVSTLKLA

Reference: article PMC4884944
